These are yes or no findings as the source states them, for the method shown.
Molecular target: human XylT-I (peptide-O-xylosyltransferase 1), residues 232-959 (human) (UniProt Q86Y38)
Assay: condition: final concentration between 50 nM and 125 nM; mass photometry; Refeyn OneMP; final protein concentration between 50 nM and 125 nM; XylT1 and SUMO-β3GalT6 in Tris buffer A (50 mM Tris pH 7.4, 250 mM NaCl) with 5% glycerol, β4GalT7 in S200 buffer (25 mM MES pH 6.5, 200 mM NaCl, 5% glycerol), GlcAT-1 in HEPES buffer; duplicates; both purified

binding: no binding
B1: human XylT-I (peptide-O-xylosyltransferase 1), residues 232-959 (enzyme, UniProt Q86Y38 232-959)
chain: DVSRPPHARKTGGSSPETKYDQPPKCDISGKEAISALSRAKSKHCRQEIGETYCRHKLGLLMPEKVTRFCPLEGKANKNVQWDEDSVEYMPANPVRIAFVLVVHGRASRQLQRMFKAIYHKDHFYYIHVDKRSNYLHRQVLQVSRQYSNVRVTPWRMATIWGGASLLSTYLQSMRDLLEMTDWPWDFFINLSAADYPIRTNDQLVAFLSRYRDMNFLKSHGRDNARFIRKQGLDRLFLECDAHMWRLGDRRIPEGIAVDGGSDWFLLNRRFVEYVTFSTDDLVTKMKQFYSYTLLPAESFFHTVLENSPHCDTMVDNNLRITNWNRKLGCKCQYKHIVDWCGCSPNDFKPQDFHRFQQTARPTFFARKFEAVVNQEIIGQLDYYLYGNYPAGTPGLRSYWENVYDEPDGIHSLSDVTLTLYHSFARLGLRRAETSLHTDGENSCRYYPMGHPASVHLYFLADRFQGFLIKHHATNLAVSKLETLETWVMPKKVFKIASPPSDFGRLQFSEVGTDWDAKERLFRNFGGLLGPMDEPVGMQKWGKGPNVTVTVIWVDPVNVIAATYDILIESTAEFTHYKPPLNLPLRPGVWTVKILHHWVPVAETKFLVAPLTFSNRQPIKPEEALKLHNGPLRNAYMEQSFQSLNPVLSLPINPAQVEQARRNAASTGTALEGWLDSLVGGMWTAMDICATGPTACPVMQTCSQTAWSSFSPDPKSELGAVKPDGRLR

From article PMC11031135, “Chemo-enzymatic synthesis of tetrasaccharide linker peptides to study the divergent step in glycosaminoglycan biosynthesis” (Glycobiology, 2024)
